The text below walks through data of US20120082692A1.

Test [1] concerns the target HLA-A*2402 (human). The experiment in a line: condition: RA > 100 (peptide tested from 100 µM to 0.1 µM); T2-A24 cell surface HLA-A*2402 expression after 16 h with peptide, stained with mAb 0041HA; relative affinity vs reference peptide … (SEQ ID NO: 111).
The target in test [2] is HLA-A*2402 (human). The experiment in a line: T2-A24 cell HLA-A*2402 surface expression assay, mAb 0041HA staining; grade of relative affinity.
Test [3] has as its target HLA-A*2402 (human). The experiment in a line: T2-A24 cell HLA-A*2402 surface expression assay, mAb 0041HA staining.

No constants are given. Whether binding was seen depends on the method and setting. For part of these data: A result given as binding can be weak or reduced; the word gives no strength.

PYGVLLKTH [TERT 403]: the binding entry in the test with HLA-A*2402 (human) [1] is given as “no binding”.
On the same count and under the same terms, the result for PYNYLSTDV [Her2/neu 300] reads “no binding”; that for RYEFLWGPR [MAGE 261], “no binding”.
In the case of PYGCLLDHV [Her2/neu 802], the binding result with HLA-A*2402 (human) [2] and with HLA-A*2402 (human) [3] was “binds” in each case.
PYDGIPARE [Her2/neu 922]: in the test with HLA-A*2402 (human) [1], the binding result is listed as “no binding”.
